Reference: PubChem BioAssay AID2685 (National Center for Advancing Translational Sciences (NCATS), 2010)
The list shows a part of the results. The main result of the screen is listed elsewhere. These columns were measured beside it and carry no call. The list favours compounds with an active or inconclusive main result. Words in brackets tell the shape of the fitted curve; partial curves, single points and poor fits give uncertain potencies.

Experiment: qHTS Assay for Lipid Storage Modulators in Drosophila S3 Cells;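 for cell number change: cells counted by Cell Tracker Red CMTPX staining in the red channel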
Conditions: BODIPY lipid droplet fluorescence, 18-24 h; for cell number change: measured here: cell count max response, cells fed with added oleic acid
How it was run: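 Drosophila S3 cells got compounds at several concentrations plus oleic acid (400 uM solution). Laser-scanning cytometry with 488 nm excitation read lipid droplets at 500-530 nm and cells at 575-640 nm. Percent activity was relative to 20 uM Triacsin C.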

[1] = measured here: cell number channel AC50, cells fed with added oleic acid
[2] = measured here: lipid fluorescence (Fed channel) AC50, cells fed with added oleic acid

SMILES	cell number change [%]	AC50 [1]	AC50 [2]
CC(CNS(=O)(=O)c1ccc2c(c1)CC(=O)N2C)c1ccccc1 (configuration not stated)	23.7		
O=C(CSc1nnc(CCc2ccccc2)n1-c1ccc(Cl)cc1)NCc1ccccc1	-48	2.59 µM [rising, single point]	
CC(=O)CSc1nc2c(c(=O)[nH]c(=O)n2C)n1Cc1ccccc1Cl	22		29.1 µM [rising, single point]
Nc1c(S(=O)(=O)c2cccc(Cl)c2)c2nc3ccccc3nc2n1CCN1CCOCC1	23.9	0.461 µM [rising, full curve]	
COC(=O)c1cccc(NC2CC(=O)N(c3ccc(OC)c(OC)c3)C2=O)c1 (configuration not stated)	-4.23		
O=C(O)CSc1nc2ccc(C(=O)c3ccccc3)cc2[nH]1	-3.51		29.1 µM [rising, single point]
O=C(COC(=O)C1CC1)Nc1ccc([N+](=O)[O-])cc1C(F)(F)F	-6.59		29.1 µM [falling, single point]
O=C(/C=N/O)Nc1ccc(F)cc1	-2.11		29.1 µM [falling, single point]
Cc1cc(NS(=O)(=O)c2ccc(NS(=O)(=O)c3ccc(CC(C)C)cc3)cc2)nc(C)n1	-1.92		0.562 µM [falling, full curve, poor fit]
O=C(NC(=S)N1CCCC(C(F)(F)F)C1)c1ccc(F)cc1 (configuration not stated)	20.6	0.00461 µM [rising, full curve, poor fit]	
O=C(O)C1C2C=CC3(CN(C4CCCC4)C(=O)C13)O2 (configuration not stated)	8.29		
CCOC(=O)c1cc(-c2ccc(C)cc2)nc2nc(SC)[nH]c(=O)c12	15.3		5.17 µM [rising, partial curve]
CN(C#N)c1nc(Cl)nc(Nc2cccc(Cl)c2)n1	-14.3		
CC(NC(=O)c1cccc(C(F)(F)F)c1)C(c1ccccc1)N1CCOCC1 (configuration not stated)	47.4		7.31 µM [rising, partial curve]
CC(=O)c1sc(NC(=O)c2ccc(F)cc2)nc1-c1ccccc1	-30.2	0.82 µM [falling, full curve]	0.731 µM [falling, single point]
O=C(CCOc1ccccc1)Nc1ccnn1C1CCN(Cc2ccc(O)cc2)CC1	5.28		32.6 µM [falling, partial curve, poor fit]
CCCC(=O)N1CC2(C)CN(C(=O)CCC)CC(CCC)(C1)C2=O	-39.6	14.6 µM [falling, partial curve]	29.1 µM [falling, single point]
N#CC1(C#N)COC23CCCCC2C1(C#N)C(=N)O3 (configuration not stated)	24.6		0.651 µM [rising, single point]
CS(=O)(=O)c1ccc(C(=O)OCC(=O)NC2CCS(=O)(=O)C2)cc1[N+](=O)[O-] (configuration not stated)	11.8		6.51 µM [falling, single point]
CN(Cc1ccccc1)C(=O)c1ccc(NC(=O)c2ccccc2)cc1	-13.2		1.46 µM [rising, partial curve]
Cc1c(C(C)(C)C)s/c(=N/S(=O)(=O)c2ccccc2)n1C	-38.8		

In the list so far, 3 have an NH in an aromatic ring.
SMILES	cell number change [%]	AC50 [1]	AC50 [2]
CC(=O)CSc1nc2c(c(=O)[nH]c(=O)n2C)n1Cc1ccccc1Cl	22		29.1 µM [rising, single point]
O=C(O)CSc1nc2ccc(C(=O)c3ccccc3)cc2[nH]1	-3.51		29.1 µM [rising, single point]
CCOC(=O)c1cc(-c2ccc(C)cc2)nc2nc(SC)[nH]c(=O)c12	15.3		5.17 µM [rising, partial curve]

For reference, some entries already given:
SMILES	cell number change [%]	AC50 [1]	AC50 [2]
CN(C#N)c1nc(Cl)nc(Nc2cccc(Cl)c2)n1	-14.3		
CC(NC(=O)c1cccc(C(F)(F)F)c1)C(c1ccccc1)N1CCOCC1 (configuration not stated)	47.4		7.31 µM [rising, partial curve]

Remaining list, next part.

SMILES	cell number change [%]	AC50 [1]	AC50 [2]
O=C(OCC(=O)N1CCCC1=O)c1nc(Cl)ccc1Cl	-12		0.366 µM [falling, full curve, poor fit]
CC(=O)c1ccc(S(=O)(=O)N2CCC3(CC2)OCCO3)cc1		6.51 µM [rising, single point]	25.9 µM [falling, single point]
Cc1cccc(OCc2nnc(SCC(=O)N(c3ccccc3)C3CCS(=O)(=O)C3)o2)c1 (configuration not stated)	-19.1		
CCc1ccccc1NC(=O)Nc1ccsc1C(=O)OC	-13.9		
CC1CCC2(CC1)NC(=O)N(CC(=O)N1CCN(S(=O)(=O)c3ccc4c(c3)CCC4)CC1)C2=O (configuration not stated)	11.8		0.116 µM [falling, full curve, poor fit]
COc1cc(OC)cc(C(=O)NCCc2cnc[nH]2)c1	47.9	29.1 µM [rising, single point]	29.1 µM [rising, single point]
Cc1nn(-c2ccccc2)c(C)c1CN	5.92		
COc1ccc(-n2c(-c3ccco3)nc3c(cnn3-c3ccccc3C)c2=O)cc1	17		0.00259 µM [rising, full curve, poor fit]
CCOC(=O)c1nnc(-c2ccc(C)cc2)nc1N1CCSCC1	-27.9	4.11 µM [falling, single point]	
COc1ccc(CN2CCN(C(=O)Cn3c(=O)oc4cc(Cl)ccc43)CC2)c(OC)c1OC	17.6		
O=[N+]([O-])c1ccc2c(c1)C=C1CCCCC1(N1CCCC1)O2 (configuration not stated)	-3.85		29.1 µM [falling, single point]
COc1ccc(S(=O)(=O)N2CCN(S(=O)(=O)c3ccc4c(c3)OCCO4)CC2)cc1	26.4	4.11 µM [rising, full curve, poor fit]	
CCNc1cc2oc(=O)c(CN3CCOCC3)c(C)c2cc1C	-13		
CCc1csc(CCNC(=O)C2CCC(=O)N(Cc3ccccc3F)C2)n1 (configuration not stated)	-14.4		6.51 µM [falling, single point]
Cc1ccc(NC(=O)CCN2C(=O)NC(C)(C)C2=O)cc1F	-34.5		
CCOc1ccc(NC(=O)CC2C(=O)N(C)C(=S)N2CCCc2ccccc2)cc1 (configuration not stated)	21.6		7.31 µM [rising, partial curve]
CCOC(=O)c1cccc(NC(=O)CSc2nc3cccnc3n2C)c1		1.84 µM [rising, partial curve]	1.84 µM [rising, partial curve]
O=C(NCC1CCCO1)c1ccc(Oc2ccc([N+](=O)[O-])cc2Cl)cc1 (configuration not stated)	26.1		16.4 µM [rising, partial curve]
CC(C)NC(=O)/C(C#N)=C/c1cccc(NC(=O)c2ccccc2Cl)c1	-32.6	32.6 µM [falling, single point]	8.2 µM [falling, partial curve, poor fit]
c1ccc(N2N=C(c3cccs3)CC2c2ccco2)cc1 (configuration not stated)	8.13		7.31 µM [rising, partial curve]
O=C(NCCc1ccc(C(F)(F)F)cc1)c1ccc2c(c1)OCO2	-8.9		0.103 µM [falling, full curve, poor fit]

SMILES	cell number change [%]	AC50 [1]	AC50 [2]
CCc1nc(SCC(=O)c2cccc([N+](=O)[O-])c2)n[nH]1	-6.66		
Cc1ccc(NC(=O)CSC2=NN3CCCC(=O)N=C3S2)cc1Cl	170	18.4 µM [rising, partial curve]	
CSc1ccccc1OCc1cc(C(=O)N(C)Cc2ccc(C)o2)no1	-29		20.6 µM [falling, single point]
COc1cc(C2NCC(c3ccc(Cl)cc3Cl)c3c2[nH]c2ccccc32)cc(OC)c1OC (configuration not stated)	-36.3	2.91 µM [falling, full curve]	3.66 µM [rising, full curve]
CCOC(=O)C(C)Sc1ncc(-c2ccccc2)cn1 (configuration not stated)	-6.13		
CN(C(=O)c1ccc(NC(=O)Cc2cccc([N+](=O)[O-])c2)cc1)C1CC1	-39	9.2 µM [falling, single point]	25.9 µM [falling, single point]
CN(C(=O)CSc1nnc(-c2ccco2)n1Cc1ccccc1)C1CCS(=O)(=O)C1 (configuration not stated)	-15		1.64 µM [falling, partial curve]
COC(=O)c1cc(=O)n(Cc2ccco2)c(=Nc2ccc(F)c(Cl)c2)s1	3.87		
Cc1ccc2nc(SCc3nnc(-c4ccccc4Br)o3)[nH]c2c1	-19.4		16.4 µM [falling, single point]
NC(=O)c1ccc(C2SCC(=O)N2Cc2ccccc2)cc1 (configuration not stated)	-31.6	25.9 µM [falling, single point]	
Cc1ccc(NC(=O)C2CCCCC2C(=O)O)cc1C (configuration not stated)	-0.812		0.461 µM [falling, full curve, poor fit]
CC(C)c1ccc(NC(=O)C2CCCN2S(=O)(=O)c2ccccc2F)cc1 (configuration not stated)	-22.9	1.84 µM [falling, partial curve, poor fit]	2.06 µM [falling, partial curve, poor fit]
COc1ccc(NC(=O)c2ccccc2-c2ccccc2)c(C)c1	122		4.11 µM [falling, partial curve, poor fit]
Cc1nnc(Nc2ccc(S(N)(=O)=O)cc2)c2ccccc12	13.5		16.4 µM [rising, single point]
O=C(Cn1ccc(=O)[nH]c1=O)NCCO	-15.8		3.26 µM [falling, partial curve, poor fit]
COc1cccc(CC2(CO)CCN(CC3=CC[C@H]4C[C@@H]3C4(C)C)CC2)c1	17.3		5.17 µM [rising, full curve, poor fit]
O=C(Cn1c(S(=O)(=O)Cc2ccccc2)nc2ccccc21)N1CCCCC1	-15.3		32.6 µM [falling, single point]
Cc1ccc(/C=N/NC(=O)c2c(-c3ccccc3)noc2C)c(O)c1	4.91		29.1 µM [rising, single point]
CC1CC(C)CN(C(=O)C2CC(=O)N(c3ccc(F)cc3)C2)C1 (configuration not stated)	7.56		
COc1ccc(OC)c(NC(=O)CC2SC(=NCc3ccccc3)NC2=O)c1 (configuration not stated)	-8.06	0.13 µM [rising, full curve, poor fit]	6.51 µM [rising, single point]
